In patent publication US12515963B2, “Nanoparticle composition and method of inhibiting ovarian cancer cell viability” (priority 2019, dated 2026) one finds MIC data, which are given here for one molecule.

Assay [1] relates to E. faecalis A (vancomycin resistant Enterococcus type Van-A). Kind of assay: Minimum inhibitory concentration (MIC). In kind it is cell-based. The protocol:
(§1) Minimum inhibitory concentration (MIC) was determined to assess the antibacterial potential of the compositions of Example 6 in microorganisms. MIC is the lowest concentration of a drug which prevents visible growth of bacterium. The tested panel of microorganisms represented a very broad spectrum of antibiotic resistant microorganisms. Sample 4-1 and Tetracycline (as control) were tested against multidrug-resistant Salmonella typhimurium DT 104. Sample 4-2 and Amoxicillin (as control) were tested against Bacillus subtilis. Sample 4-3 and Vancomycin (as control) were tested against vancomycin resistant Enterococcus type Van-A and also vancomycin resistant Leuconostoc mesenteroides VKPM B-4177. In all test conditions monometallic silver nanoparticle composition with Miramistin® alone (obtained using a process known in the art) were used as a control. This composition is referred to as “Ag-NPs-Myramistin in Table 8.

For assay [2], the system named is E. faecium A (vancomycin resistant Enterococcus type Van-A). The assay can be described thus: Minimum inhibitory concentration (MIC). The assay is classed as cell-based. The protocol: as §1

Usually MIC stands for the smallest concentration in the dilution series that meets the test's criterion for growth inhibition. A higher MIC goes with a need for much substance. On to `CN[C@H](CC(C)C)C(=O)N[C@H]1C(=O)N[C@@H](CC(N)=O)C(=O)N[C@H]2C(=O)N[C@H]3C(=O)N[C@H](C(=O)N[C@H](C(=O)O)c4cc(O)cc(O)c4-c4cc3ccc4O)[C@H](O)c3ccc(c(Cl)c3)Oc3cc2cc(c3O[C@@H]2O[C@H](CO)[C@@H](O)[C@H](O)[C@H]2O[C@H]2C[C@](C)(N)[C@H](O)[C@H](C)O2)Oc2ccc(cc2Cl)[C@H]1O` [Vancomycin], for which the MIC in assay [1] and in assay [2] was more than 128 µg/mL each time.
